Taken from: PubChem BioAssay AID686943 (Drosophila RNAi Screening Center, 2013)

Aim: 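Knockdowns that increase or decrease active ERK after insulin receptor stimulation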 (primary screen)
Cell system: Drosophila S2R+ haemocyte-like cells expressing YFP-tagged ERK (Rolled)
Reagent: long dsRNA against Drosophila genes
Conditions: insulin stimulation versus unstimulated cells; dose and duration not given
Measured: 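Antibody staining for doubly phosphorylated ERK divided by ERK-YFP signal, as plate z-scores, in insulin-treated and untreated cells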
Scale: replicate 1, z-score of dpERK with insulin and replicate 2, z-score of dpERK with insulin: higher = more active ERK per ERK-YFP after insulin
The screen tested about 23,000 reagents; shown is a random part of those with a known target gene and a result. 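Extra replicates exist only for a retested subset of genes; insulin dose and duration not given; both raised and lowered dpERK matter.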 Further read-outs or replicates are left out here. Not given: the amount of reagent, the time to read-out.

Gene | PubChem SID | replicate 1, z-score of dpERK with insulin | replicate 2, z-score of dpERK with insulin
CG32206 (GeneID 40105) | SID104189394 | 0.51 | 0.45
CG32206 (GeneID 40105) | SID104189886 | 0.72 | 1.04
CG32206 (GeneID 40105) | SID104189887 | -0.04 | 0.23
CG32206 (GeneID 40105) | SID104189888 | 0.29 | 0.46
CG32206 (GeneID 40105) | SID104190872 | 0.32 | 0.18
CG8852 (GeneID 33577) | SID104180511 | 0.16 | 0.03
Grd (GeneID 39984) | SID104190970 | 0.43 | 0.46
CG8360 (GeneID 34122) | SID104182877 | -0.29 | 0.05
CG14556 (GeneID 43176) | SID104194691 | 1.02 | 0
CSN6 (GeneID 42661) | SID104196385 | -1.03 | -0.05
CR13656 (GeneID 8674041) | SID104193497 | 0.43 | -0.28
CR13656 (GeneID 8674041) | SID104194448 | 0.05 | 1.03
CG3597 (GeneID 33420) | SID104180409 | -0.41 | -1.12
TfIIA-S (GeneID 42822) | SID104196675 | 1.33 | -0.17
kune (GeneID 35504) | SID104184652 | 0.05 | 0.13
htt (GeneID 43392) | SID104196762 | -0.36 | 0
cer (GeneID 37229) | SID104185784 | -0.15 | -0.05
bor (GeneID 53565) | SID104196707 | 0.17 | 0.59
vls (GeneID 35289) | SID104181893 | -0.75 | -0.51
eIF5B (GeneID 44261) | SID104188221 | -0.07 | 0.11
eIF5B (GeneID 44261) | SID104188502 | 1.79 | 3.17
Nop60B (GeneID 37873) | SID104184419 | -0.36 | -0.73
Sox21a (GeneID 39567) | SID104190611 | -0.69 | 0.12

Just “replicate 2, z-score of dpERK with insulin”, for 2 of the entries above:
bor (GeneID 53565) [SID104196707] = 0.59
vls (GeneID 35289) [SID104181893] = -0.51
